Source: ChEMBL document CHEMBL3988442, “University of Dundee, Small-Polar-MMV Screening Library” (2021).

Sequences of proteins named here, by UniProt entry; tags and fusion partners are left off.
UniProt P9WFT3, whole entry: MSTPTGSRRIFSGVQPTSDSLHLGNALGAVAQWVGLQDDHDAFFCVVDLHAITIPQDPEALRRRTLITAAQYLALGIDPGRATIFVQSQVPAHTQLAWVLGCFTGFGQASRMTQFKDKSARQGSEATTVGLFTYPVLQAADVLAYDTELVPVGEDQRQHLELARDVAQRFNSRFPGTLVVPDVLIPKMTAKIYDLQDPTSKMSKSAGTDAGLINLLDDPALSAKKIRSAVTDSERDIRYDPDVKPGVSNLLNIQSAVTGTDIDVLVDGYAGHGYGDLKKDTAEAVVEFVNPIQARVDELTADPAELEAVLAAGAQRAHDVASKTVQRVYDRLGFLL
UniProt I6X8D2, whole entry: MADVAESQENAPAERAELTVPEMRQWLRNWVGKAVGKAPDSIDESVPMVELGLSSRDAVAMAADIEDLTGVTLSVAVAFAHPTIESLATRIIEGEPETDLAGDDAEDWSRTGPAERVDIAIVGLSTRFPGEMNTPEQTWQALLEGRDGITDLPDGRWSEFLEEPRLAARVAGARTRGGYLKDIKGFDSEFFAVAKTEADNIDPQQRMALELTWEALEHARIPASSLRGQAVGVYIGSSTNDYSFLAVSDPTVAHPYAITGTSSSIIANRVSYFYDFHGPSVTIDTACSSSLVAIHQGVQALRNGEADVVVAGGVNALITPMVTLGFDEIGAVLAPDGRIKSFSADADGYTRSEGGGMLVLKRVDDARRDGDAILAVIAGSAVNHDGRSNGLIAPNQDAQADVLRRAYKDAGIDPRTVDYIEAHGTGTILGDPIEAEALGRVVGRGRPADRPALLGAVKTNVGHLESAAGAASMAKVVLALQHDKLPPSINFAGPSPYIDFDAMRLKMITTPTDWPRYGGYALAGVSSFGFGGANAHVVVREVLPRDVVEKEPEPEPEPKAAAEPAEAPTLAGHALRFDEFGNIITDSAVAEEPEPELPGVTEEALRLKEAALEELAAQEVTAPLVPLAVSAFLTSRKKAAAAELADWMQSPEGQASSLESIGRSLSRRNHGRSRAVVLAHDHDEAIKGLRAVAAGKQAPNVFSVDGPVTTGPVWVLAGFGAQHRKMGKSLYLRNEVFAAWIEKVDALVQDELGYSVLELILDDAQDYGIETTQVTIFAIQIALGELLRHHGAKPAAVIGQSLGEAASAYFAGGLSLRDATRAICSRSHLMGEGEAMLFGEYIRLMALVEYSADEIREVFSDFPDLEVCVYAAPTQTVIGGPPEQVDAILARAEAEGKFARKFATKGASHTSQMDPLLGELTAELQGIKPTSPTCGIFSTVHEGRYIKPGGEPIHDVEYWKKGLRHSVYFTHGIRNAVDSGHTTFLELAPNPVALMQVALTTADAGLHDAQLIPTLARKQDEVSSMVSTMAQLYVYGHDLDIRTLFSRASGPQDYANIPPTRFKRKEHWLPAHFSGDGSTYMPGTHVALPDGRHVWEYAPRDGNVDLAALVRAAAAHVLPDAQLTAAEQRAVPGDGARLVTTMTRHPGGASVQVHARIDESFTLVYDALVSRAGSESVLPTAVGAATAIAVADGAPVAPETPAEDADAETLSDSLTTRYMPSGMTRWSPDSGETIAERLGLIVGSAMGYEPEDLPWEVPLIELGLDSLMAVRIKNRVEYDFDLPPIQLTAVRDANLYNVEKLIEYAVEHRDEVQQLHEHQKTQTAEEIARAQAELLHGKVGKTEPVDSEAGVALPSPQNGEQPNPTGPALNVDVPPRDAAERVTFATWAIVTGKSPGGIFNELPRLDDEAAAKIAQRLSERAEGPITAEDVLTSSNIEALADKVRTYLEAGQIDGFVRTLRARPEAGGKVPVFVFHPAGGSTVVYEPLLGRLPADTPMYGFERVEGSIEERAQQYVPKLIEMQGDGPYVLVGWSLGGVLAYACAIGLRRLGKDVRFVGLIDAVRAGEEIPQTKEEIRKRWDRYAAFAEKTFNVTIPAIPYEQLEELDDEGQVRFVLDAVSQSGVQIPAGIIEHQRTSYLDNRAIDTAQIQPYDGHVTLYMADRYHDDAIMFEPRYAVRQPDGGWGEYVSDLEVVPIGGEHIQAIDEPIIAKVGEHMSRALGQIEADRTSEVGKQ

The filed quantity is “Percent Effect” (%).
How 0% and 100% were set is not recorded. Most values in the screen are low, and negative values occur.
Compounds were drawn at random from those tested, without regard to their results.
A dash means the value is not listed here; it may have been measured.

MtTrpRS: 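Enzyme assay of tryptophanyl-tRNA synthetase; the read-out is not stated. Target: Tryptophan-tRNA ligase, Mycobacterium tuberculosis (UniProt P9WFT3). Tested at 10 µM. Higher most likely means stronger inhibition; the record gives no direction and few retests gave an IC50. Of about 65,000 compounds tested this way, about 64 (0.098%) reached 50% or more in at least one test.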
Pks13 thioesterase: 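Polyketide synthase Pks13, Mycobacterium tuberculosis (UniProt I6X8D2). Enzyme assay of the thioesterase domain of polyketide synthase 13; the read-out is not stated. Compounds at 30 µM. Higher reads as stronger inhibition (inferred from which compounds were picked for retests). About 67,000 compounds were tested under these conditions; 0.46% (about 300) showed 50% or more at least once.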

| # | SMILES | MtTrpRS | Pks13 thioesterase |
|---|---|---|---|
| 1 | `CCOc1ccccc1C(CC(=O)Nc1ccc(C)cn1)NC(C)=O` (stereo not given) | -1.572 | -5.001 |
| 2 | `CN(C(=O)c1cccc(Cl)c1)C1CCN(c2ccccn2)CC1` | -6.019 | -13.19 |
| 3 | `O=C(NCc1nc(NC2CCCC2)c2cc(Cl)ccc2n1)c1ccoc1` | 13.58 | -8.821 |
| 4 | `c1ccc2c(N3CCOCC3)cnnc2c1` | -0.892 | -4.629 |
| 5 | `O=C(c1sccc1C1CC1)N1CCN(Cc2cscn2)CC1` | 1.254 | -21.58 |
| 6 | `Cc1cnc2n(c1=O)C(CC(=O)NCc1ccc(F)cc1)CS2` (stereo not given) | -1.614 | 15.52 |
| 7 | `N#CC1CCN(C(=O)CN2CC(c3ccccc3)CC2=O)CC1` (stereo not given) | -0.784 | -9.789 |
| 8 | `CCn1ccnc1CN(C)Cc1nc(Cc2cccc(F)c2)no1` | 11.24 | 14.53 |
| 9 | `CO[C@H]1CN(C(C)C)C[C@@H]1NC(=O)Nc1ccc2oc(C)cc2c1` | -5.003 | -11.69 |
| 10 | `CC(C)NC(=O)CN(C)C(=O)c1c(Cl)c2ccccc2n1C` | -0.6399 | -5.746 |
| 11 | `O=C(c1ccccc1)N(CC1CC1)c1cccnc1` | -4.823 | -3.95 |
| 12 | `c1ccc(CCc2n[nH]c(C3CCOC3)n2)cc1` (stereo not given) | -1.464 | - |
| 13 | `O=C(O)c1cccc(CN2CCCC(c3ccn[nH]3)C2)c1` (stereo not given) | -0.1302 | -3.453 |
| 14 | `CC(CNC(=O)c1ccncc1F)Oc1ccc(F)cc1` (stereo not given) | 0.1434 | 1.687 |
| 15 | `COc1ccccc1CNC(=O)c1ccccc1-n1cnc(CN)c1` | - | -2.929 |
| 16 | `O=C(Nc1cc(F)ccc1OCC1CCCO1)c1ccc(O)nc1` (stereo not given) | 2.111 | -18.16 |
| 17 | `CC(NC(=O)C1=NN(C)C(=O)CC1)c1ccccc1Cl` (stereo not given) | 7.712 | -0.5489 |
| 18 | `Cc1cc2nc(SCC(=O)N3CCCC3)n(Cc3ccco3)c(O)c-2n1` | 6.111 | -29.5 |
| 19 | `NC(=O)C1(c2cnccn2)CCCN1Cc1cccc(Cl)c1` (stereo not given) | - | 7.251 |
| 20 | `O=C1N[C@@H]2CCN(C(=O)C3CCCC3)[C@@H]2C(=O)N1c1ccc(F)cc1` | 0.3765 | 3.807 |
| 21 | `CS(=O)(=O)N1CCC(Oc2ccc(C(=O)NCCC(N)=O)cc2Cl)CC1` | 4.894 | -2.816 |
| 22 | `Cc1ccc(N2CCN(C(=O)CCc3n[nH]c(C)n3)CC2=O)cc1` | 4.027 | -1.768 |
| 23 | `COCC(=O)NCc1cc(=O)n2c(n1)CN(Cc1ccoc1)CCC2` | 4.653 | 3.91 |
| 24 | `CN(C)[C@@H]1CO[C@H](CNC(=O)c2cccs2)[C@H]1O` | -8.961 | -41.29 |
| 25 | `COc1cccc(Cn2ncc(N(C)CCc3ccccc3)cc2=O)c1` | 0.3018 | -34.02 |